# Measured values published in the supplement of paper PMC12819154, “High-throughput peptide-centric local stability assay extends protein–ligand identification to membrane proteins, tissues and bacteria” (Nature Structural & Molecular Biology, 2025).
# Chains of the proteins cited; added tags and fusions are not shown. Lines headed by an entry give the natural chain unless they say otherwise; changes in a name come on top.
# UniProt Q9H792: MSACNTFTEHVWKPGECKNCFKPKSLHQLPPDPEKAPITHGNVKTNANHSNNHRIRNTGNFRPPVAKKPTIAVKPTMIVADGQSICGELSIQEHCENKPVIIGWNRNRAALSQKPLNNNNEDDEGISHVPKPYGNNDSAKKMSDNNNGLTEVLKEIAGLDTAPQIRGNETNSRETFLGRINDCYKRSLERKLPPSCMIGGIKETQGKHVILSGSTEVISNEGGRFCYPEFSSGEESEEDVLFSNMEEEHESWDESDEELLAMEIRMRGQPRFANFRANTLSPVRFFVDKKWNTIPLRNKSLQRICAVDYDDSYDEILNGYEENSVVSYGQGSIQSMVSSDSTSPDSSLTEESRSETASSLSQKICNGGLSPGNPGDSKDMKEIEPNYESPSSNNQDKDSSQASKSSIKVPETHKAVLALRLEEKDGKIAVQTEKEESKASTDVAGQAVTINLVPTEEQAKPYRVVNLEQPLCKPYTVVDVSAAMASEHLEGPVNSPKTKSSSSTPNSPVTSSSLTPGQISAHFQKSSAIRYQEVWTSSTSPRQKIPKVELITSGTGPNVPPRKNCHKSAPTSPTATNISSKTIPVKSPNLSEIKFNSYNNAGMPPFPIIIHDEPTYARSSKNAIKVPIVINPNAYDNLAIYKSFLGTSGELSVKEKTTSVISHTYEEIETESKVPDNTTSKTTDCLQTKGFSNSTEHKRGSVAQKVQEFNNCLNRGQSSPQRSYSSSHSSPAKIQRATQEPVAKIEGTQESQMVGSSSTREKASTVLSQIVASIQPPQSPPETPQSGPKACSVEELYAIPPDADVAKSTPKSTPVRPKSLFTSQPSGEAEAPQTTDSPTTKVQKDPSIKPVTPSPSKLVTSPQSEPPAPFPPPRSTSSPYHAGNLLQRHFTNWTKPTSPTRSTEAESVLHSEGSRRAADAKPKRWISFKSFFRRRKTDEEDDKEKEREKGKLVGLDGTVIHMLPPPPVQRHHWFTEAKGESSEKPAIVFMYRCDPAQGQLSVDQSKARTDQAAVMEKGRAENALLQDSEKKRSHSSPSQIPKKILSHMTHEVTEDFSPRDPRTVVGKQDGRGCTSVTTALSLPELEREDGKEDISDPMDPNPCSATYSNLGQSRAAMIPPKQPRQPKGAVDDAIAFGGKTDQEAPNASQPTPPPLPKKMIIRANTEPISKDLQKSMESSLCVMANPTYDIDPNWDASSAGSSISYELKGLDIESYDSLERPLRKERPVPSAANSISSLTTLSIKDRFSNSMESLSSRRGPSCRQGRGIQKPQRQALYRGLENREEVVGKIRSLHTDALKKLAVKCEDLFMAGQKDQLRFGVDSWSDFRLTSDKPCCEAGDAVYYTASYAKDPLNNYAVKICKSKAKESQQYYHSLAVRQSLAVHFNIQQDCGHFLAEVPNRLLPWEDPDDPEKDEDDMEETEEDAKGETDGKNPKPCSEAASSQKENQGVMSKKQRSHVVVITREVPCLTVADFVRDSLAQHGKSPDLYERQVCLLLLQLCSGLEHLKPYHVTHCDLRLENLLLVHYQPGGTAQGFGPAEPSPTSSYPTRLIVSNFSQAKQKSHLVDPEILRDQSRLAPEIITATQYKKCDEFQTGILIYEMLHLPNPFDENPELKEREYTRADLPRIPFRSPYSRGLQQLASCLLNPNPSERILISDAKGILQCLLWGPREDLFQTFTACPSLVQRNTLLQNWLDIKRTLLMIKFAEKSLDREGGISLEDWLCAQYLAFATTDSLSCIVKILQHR
# UniProt Q9H3M7: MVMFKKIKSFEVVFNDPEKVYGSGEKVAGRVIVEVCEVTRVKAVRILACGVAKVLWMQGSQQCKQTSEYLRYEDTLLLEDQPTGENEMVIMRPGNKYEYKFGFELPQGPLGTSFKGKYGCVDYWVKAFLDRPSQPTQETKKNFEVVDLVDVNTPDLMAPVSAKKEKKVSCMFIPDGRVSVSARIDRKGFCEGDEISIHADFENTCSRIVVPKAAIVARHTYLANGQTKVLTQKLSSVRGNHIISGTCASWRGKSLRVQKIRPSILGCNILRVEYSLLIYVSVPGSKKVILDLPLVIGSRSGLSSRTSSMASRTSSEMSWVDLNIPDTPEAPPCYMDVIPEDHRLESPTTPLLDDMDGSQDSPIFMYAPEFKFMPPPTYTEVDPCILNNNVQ
# UniProt Q9H9P8: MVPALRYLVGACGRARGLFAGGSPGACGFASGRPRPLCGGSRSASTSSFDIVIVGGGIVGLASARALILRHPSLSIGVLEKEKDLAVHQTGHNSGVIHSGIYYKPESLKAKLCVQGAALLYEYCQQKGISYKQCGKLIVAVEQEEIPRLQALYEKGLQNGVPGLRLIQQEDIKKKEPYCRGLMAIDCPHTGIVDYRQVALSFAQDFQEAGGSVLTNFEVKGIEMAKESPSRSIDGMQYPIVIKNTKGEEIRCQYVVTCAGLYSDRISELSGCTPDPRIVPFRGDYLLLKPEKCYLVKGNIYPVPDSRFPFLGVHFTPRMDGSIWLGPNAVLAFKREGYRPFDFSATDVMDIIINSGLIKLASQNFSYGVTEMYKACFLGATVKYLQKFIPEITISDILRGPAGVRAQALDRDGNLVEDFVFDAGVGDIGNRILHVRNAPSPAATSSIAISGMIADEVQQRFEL
# UniProt Q9H939: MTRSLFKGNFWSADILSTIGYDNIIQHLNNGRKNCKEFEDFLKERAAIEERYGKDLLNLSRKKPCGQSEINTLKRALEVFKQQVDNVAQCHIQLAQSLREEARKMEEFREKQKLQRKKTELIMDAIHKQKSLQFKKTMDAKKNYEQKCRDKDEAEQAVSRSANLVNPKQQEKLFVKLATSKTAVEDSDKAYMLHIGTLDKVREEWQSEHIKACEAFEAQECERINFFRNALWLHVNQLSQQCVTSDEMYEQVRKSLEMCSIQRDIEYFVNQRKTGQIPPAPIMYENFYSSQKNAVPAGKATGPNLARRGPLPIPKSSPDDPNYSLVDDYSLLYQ
# UniProt Q9HCH3: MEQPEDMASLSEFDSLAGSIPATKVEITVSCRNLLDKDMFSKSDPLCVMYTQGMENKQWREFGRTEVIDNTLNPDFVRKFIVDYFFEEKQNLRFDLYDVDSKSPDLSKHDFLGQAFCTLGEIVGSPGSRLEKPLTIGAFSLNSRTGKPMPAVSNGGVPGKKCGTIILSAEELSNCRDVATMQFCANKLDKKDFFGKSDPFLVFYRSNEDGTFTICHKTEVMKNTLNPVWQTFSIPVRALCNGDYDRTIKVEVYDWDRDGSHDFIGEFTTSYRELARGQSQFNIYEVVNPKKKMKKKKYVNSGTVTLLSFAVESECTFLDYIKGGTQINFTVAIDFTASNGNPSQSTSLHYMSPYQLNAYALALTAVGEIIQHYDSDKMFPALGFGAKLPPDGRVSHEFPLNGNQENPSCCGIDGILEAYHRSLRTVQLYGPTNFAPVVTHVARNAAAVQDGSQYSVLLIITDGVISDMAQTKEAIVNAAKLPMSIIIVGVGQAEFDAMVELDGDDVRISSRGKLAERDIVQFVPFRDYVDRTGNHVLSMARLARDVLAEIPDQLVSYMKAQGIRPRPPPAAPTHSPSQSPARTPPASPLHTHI
# UniProt Q9H869: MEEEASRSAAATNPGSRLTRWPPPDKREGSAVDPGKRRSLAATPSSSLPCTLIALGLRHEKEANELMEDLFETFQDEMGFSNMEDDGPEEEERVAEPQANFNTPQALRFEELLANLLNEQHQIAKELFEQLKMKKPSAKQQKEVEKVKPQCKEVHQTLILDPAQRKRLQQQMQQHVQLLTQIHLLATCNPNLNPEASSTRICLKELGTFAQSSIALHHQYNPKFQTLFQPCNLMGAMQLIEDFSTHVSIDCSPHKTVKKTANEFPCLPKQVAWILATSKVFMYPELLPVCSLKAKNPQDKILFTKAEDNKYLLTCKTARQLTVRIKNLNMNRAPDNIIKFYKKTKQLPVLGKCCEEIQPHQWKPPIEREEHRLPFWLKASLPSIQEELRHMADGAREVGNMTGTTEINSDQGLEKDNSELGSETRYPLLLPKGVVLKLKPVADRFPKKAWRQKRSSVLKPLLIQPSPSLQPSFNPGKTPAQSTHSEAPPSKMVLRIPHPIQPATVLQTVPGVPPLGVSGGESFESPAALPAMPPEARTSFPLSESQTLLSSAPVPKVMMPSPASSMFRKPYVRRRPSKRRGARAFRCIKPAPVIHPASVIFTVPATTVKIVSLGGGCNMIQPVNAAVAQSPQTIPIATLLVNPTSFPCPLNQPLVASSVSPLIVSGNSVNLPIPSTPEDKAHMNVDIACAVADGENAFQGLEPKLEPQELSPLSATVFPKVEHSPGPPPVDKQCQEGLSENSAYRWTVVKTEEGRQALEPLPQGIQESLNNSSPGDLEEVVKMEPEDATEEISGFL
# UniProt Q9H2U2: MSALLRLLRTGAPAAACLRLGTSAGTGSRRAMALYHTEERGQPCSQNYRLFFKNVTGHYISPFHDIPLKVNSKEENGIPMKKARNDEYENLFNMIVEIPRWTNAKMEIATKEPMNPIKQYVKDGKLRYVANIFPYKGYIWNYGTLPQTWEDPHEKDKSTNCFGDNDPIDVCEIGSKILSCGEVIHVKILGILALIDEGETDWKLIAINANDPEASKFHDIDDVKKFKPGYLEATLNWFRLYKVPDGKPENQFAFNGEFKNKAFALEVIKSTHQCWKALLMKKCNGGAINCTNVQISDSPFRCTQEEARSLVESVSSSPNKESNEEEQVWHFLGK
# UniProt Q9H4G0, whole entry: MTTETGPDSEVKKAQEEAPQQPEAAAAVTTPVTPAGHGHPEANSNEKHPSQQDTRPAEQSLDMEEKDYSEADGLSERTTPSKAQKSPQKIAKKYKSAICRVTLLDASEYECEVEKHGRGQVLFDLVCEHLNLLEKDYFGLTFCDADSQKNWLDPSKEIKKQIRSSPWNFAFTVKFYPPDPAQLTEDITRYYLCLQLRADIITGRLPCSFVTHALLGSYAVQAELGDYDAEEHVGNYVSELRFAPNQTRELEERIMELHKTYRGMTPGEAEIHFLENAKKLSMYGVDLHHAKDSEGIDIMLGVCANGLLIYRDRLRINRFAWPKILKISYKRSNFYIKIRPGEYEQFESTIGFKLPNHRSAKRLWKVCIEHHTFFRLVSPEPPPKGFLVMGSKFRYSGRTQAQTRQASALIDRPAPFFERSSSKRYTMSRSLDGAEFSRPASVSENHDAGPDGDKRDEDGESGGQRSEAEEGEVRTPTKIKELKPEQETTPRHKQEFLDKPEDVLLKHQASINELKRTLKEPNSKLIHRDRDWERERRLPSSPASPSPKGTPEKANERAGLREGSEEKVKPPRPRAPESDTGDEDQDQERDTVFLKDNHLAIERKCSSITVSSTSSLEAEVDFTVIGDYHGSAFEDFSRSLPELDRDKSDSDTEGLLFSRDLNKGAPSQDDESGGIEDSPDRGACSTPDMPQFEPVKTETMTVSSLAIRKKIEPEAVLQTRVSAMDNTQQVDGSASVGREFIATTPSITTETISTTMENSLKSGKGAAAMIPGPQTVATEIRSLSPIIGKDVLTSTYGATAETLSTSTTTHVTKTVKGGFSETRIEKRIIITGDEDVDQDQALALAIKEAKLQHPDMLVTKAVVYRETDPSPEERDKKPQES
# UniProt Q9H6Y5: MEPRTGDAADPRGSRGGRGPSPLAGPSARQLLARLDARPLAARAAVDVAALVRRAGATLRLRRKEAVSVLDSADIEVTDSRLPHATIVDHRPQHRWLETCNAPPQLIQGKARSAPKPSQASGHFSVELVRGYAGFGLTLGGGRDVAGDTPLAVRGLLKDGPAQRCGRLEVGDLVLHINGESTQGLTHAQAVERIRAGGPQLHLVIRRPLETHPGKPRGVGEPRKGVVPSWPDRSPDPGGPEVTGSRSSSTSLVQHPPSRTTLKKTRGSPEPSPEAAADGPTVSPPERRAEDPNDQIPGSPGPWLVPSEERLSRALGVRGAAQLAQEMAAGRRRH
# UniProt Q9H446: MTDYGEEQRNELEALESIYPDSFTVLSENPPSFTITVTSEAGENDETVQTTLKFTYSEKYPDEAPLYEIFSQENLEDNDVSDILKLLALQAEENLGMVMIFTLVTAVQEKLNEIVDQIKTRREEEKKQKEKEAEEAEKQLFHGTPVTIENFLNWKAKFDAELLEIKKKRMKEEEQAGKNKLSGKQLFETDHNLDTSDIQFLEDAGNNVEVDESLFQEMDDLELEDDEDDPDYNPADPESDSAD
# Some of the results follow. Most entries show no effect beyond the scatter of the controls.
# Compound: Cc1nc(Nc2ncc(C(=O)Nc3c(C)cccc3Cl)s2)cc(N2CCN(CCO)CC2)n1 [dasatinib]
# Assay: log2 fold change of tryptic peptide abundance, ligand vs vehicle (limited proteolysis) (log2 ratio); higher = more trypsin-susceptible (destabilized)
# Details: ligand concentration: 5 uM; sample: K562 cleared lysate
row,Target,log2 fold change
1,"PEAK1 (peptide sequence: LIVSNFSQAK, peptide start residue: 1551) (UniProt Q9H792)",-0.218
2,"TXNIP (peptide sequence: HTYLANGQTK, peptide start residue: 219) (UniProt Q9H3M7)",-0.0805
3,"UniProt Q9H9G7 (peptide sequence: SFFSAPEGYDHPLGGGR, peptide start residue: 181)",-0.0438
4,"L2HGDH (peptide sequence: GISYKQCGK, peptide start residue: 128) (UniProt Q9H9P8)",0.361
5,"PSTPIP2 (peptide sequence: RGPLPIPK, peptide start residue: 308) (UniProt Q9H939)",-0.117
6,"CPNE5 (peptide sequence: DIVQFVPFR, peptide start residue: 485) (UniProt Q9HCH3)",-0.166
7,"YY1AP1 (peptide sequence: EVHQTLILDPAQR, peptide start residue: 153) (UniProt Q9H869)",0.304
8,"PPA2 (peptide sequence: ILSCGEVIHVK, peptide start residue: 177) (UniProt Q9H2U2)",0.605
9,"EPB41L1 (peptide sequence: LQHPDMLVTK, peptide start residue: 851) (UniProt Q9H4G0)",0.32
10,"UniProt Q9H6Y5 (peptide sequence: LPHATIVDHR, peptide start residue: 82)",-0.162
11,"RWDD1 (peptide sequence: MKEEEQAGK, peptide start residue: 170) (UniProt Q9H446)",0.0693

# 2 entries from above, with bars between the fields.
row | Target | log2 fold change
3 | UniProt Q9H9G7 (peptide sequence: SFFSAPEGYDHPLGGGR, peptide start residue: 181) | -0.0438
4 | L2HGDH (peptide sequence: GISYKQCGK, peptide start residue: 128) (UniProt Q9H9P8) | 0.361
